{"source": "patent US20230096897A1", "about": "“Lymphocyte Population and Methods for Producing Same” (AVM Biotechnology, LLC, priority 2020, published 2023)", "assay_type_in_all_cases": "in vivo, mouse", "key": {"A20 B cell lymphoma [1]": {"system": "A20 B cell lymphoma", "experiment": "A20 lymphoma study AVM_CANMOD_03 (dose response)", "experimental": "In a second study (“AVM_CANMOD_03”), BALB/c mice (n=5 per group) were dosed with increasing concentrations of AVM0703 HED DP (7, 18, and 26 mg/kg) on Days 9, 16, 24, and 31 after tumor inoculation. Treatment started when the tumors were approximately […], as opposed to well-established tumors of 150 mm^3 as in study AVM_CANMOD_01.\nBased on evidence of pseudogrowth in tumors from AVM0703-treated mice in study AVM_CANMOD_01, tumors (n=2 per group) were sent to HistoTox Labs for slicing and immunohistochemistry. Hematoxylin and eosin stains identified several regions of necrosis and the slides were scored from 0 to 5 depending on severity."}, "A20 B cell lymphoma [2]": {"system": "A20 B cell lymphoma", "experiment": "A20 B-cell lymphoma models, summary of studies", "text": "The mouse A20 lymphoma model is a very aggressive tumor model because it employs multiple direct (expression of immunoinhibitory molecule PD-L1, IDO, and IL-10, and lack of expression of CD80 costimulatory molecule) and indirect (downregulation of APC function and induction of Treg cells) immune evasion mechanisms. In addition, in the studies described in the following, AVM0703 was not dosed until A20 tumors were very well-established, at between ˜120 to 400 mm^3 in volume.\nMale BALB/c mice were inoculated subcutaneously in the flank with A20 B lymphoma cells embedded in Matrigel. Tumor volumes were monitored by caliper measurements, and when the tumors were well established at about 150 mm^3, or very well established for study “AVM_CANMOD_05” at about 400 mm^3, mice were treated with AVM0703 at HED doses of 7, 18, 22, or 25 mg/kg. Endpoint is typically defined as tumor volume of 1500 mm^3.\nThese mice were pooled and a contingency table analysis was performed using Fisher's exact test."}, "A20 B cell lymphoma [3]": {"system": "A20 B cell lymphoma", "experiment": "A20 lymphoma study AVM_CANMOD_05, endpoint analysis subset"}}, "note": "At least one compound was matched to its structure with a doubt left."}
{"smiles": "C[C@@H]1C[C@H]2[C@@H]3CCC4=CC(=O)C=C[C@]4(C)[C@@]3(F)[C@@H](O)C[C@]2(C)[C@@]1(O)C(=O)CO", "note": "[AVM0703, dexamethasone]", "values": [{"measurement": "Tumor caspase 3 (apoptotic) staining", "setting": "A20 B cell lymphoma [1]; all doses vs placebo", "value": "increase in apoptotic staining"}, {"measurement": "Tumor CD49b staining of round cells", "setting": "A20 B cell lymphoma [1]; increased doses", "value": "visual decrease"}, {"measurement": "Completely Necrotic/Resorbed By Any Measure (mice)", "setting": "A20 B cell lymphoma [2]; 18 mg/kg", "value": "**8 of 26"}, {"measurement": "Completely Necrotic/Resorbed By Any Measure (mice)", "setting": "A20 B cell lymphoma [2]; 22 mg/kg", "value": "0 of 11"}, {"measurement": "Completely Necrotic/Resorbed By Any Measure (mice)", "setting": "A20 B cell lymphoma [2]; 25 mg/kg", "value": "2 of 13"}, {"measurement": "Mice with tumor completely killed and resorbed", "setting": "A20 B cell lymphoma [3]", "value": "One of the 23"}]}
